At least one compound was matched to its structure with a doubt left.
Tested on: endogenous ferritin-H gene expression in NT-2 (NTERA-2) stem cells
Assay: Western blot for ferritin-H in NT-2 cells
Format: cell-based, human
Conditions: Western blot after 8 days in the presence of compound vs DMSO-control, FIG. 21
Procedure: Cell lines. Human NTERA-2 (NT-2) embryonal carcinoma stem cells (ATCC # CRL-1973) were cultured in DMEM medium with 10% FBS and antibiotics.
Western blots and quantification. Cell lysates (i.e., extracts of human NT-2 cells) were boiled for 3-5 minutes in SDS buffer, layered onto polyacrylamide gels and were run with SDS electrophoresis buffer at 90 volts for 30 minutes. Electrophoresed samples were then placed in 3% BSA buffer and transferred at 80 volts for 2 hours to blotting membranes. A blocking reaction was performed over night with blocking buffer from ECL advance kit (GE Healthcare Bio-Sciences, NJ), followed by incubation for 4 hours in BSA buffer with fluorescent secondary antibody (1:10000) and primary anti ferritin-H (anti-FtH) polyclonal antiserum (1:1000). Ferritin-H detection was achieved using the LI-COR apparatus to visualize the fuorescent bands and Odyssey software to quantify the stained bands of ferritin-H. Isolation and culture of human mononuclear cells and maturation of erythroid precursor cells are diagrammed in FIG. 22. Whole blood was obtained from pediatric sickle cell patients at the time of scheduled transfusion therapy under an approved IRB protocol. […]

## CC1=C(/C=C/C(C)=C/C=C/C(C)=C/C(=O)O)C(C)(C)CCC1 [retinoic acid]
  ferritin-H expression in NT-2 cells: activated ferritin-H expression

Reference: US9089521B2, “Method for regulating production of hemoglobin beta chains” (priority 2001, dated 2015)
